In publication PMC3384629:
Where two headings read alike, the source gives them in different places. No constants are given. Whether binding was seen depends on the method and setting. In cells and extracts the contact can be indirect. Some binding calls cover weakened binding; strength is not graded here.

Chains of the proteins cited; added tags and fusions are not shown.
UniProt Q60631: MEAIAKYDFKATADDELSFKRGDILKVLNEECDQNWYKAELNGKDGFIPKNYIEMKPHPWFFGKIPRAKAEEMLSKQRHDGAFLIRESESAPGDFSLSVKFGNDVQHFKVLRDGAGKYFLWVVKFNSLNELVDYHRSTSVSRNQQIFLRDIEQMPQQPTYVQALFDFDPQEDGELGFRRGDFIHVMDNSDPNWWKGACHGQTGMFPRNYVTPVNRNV
UniProt Q3TTA7: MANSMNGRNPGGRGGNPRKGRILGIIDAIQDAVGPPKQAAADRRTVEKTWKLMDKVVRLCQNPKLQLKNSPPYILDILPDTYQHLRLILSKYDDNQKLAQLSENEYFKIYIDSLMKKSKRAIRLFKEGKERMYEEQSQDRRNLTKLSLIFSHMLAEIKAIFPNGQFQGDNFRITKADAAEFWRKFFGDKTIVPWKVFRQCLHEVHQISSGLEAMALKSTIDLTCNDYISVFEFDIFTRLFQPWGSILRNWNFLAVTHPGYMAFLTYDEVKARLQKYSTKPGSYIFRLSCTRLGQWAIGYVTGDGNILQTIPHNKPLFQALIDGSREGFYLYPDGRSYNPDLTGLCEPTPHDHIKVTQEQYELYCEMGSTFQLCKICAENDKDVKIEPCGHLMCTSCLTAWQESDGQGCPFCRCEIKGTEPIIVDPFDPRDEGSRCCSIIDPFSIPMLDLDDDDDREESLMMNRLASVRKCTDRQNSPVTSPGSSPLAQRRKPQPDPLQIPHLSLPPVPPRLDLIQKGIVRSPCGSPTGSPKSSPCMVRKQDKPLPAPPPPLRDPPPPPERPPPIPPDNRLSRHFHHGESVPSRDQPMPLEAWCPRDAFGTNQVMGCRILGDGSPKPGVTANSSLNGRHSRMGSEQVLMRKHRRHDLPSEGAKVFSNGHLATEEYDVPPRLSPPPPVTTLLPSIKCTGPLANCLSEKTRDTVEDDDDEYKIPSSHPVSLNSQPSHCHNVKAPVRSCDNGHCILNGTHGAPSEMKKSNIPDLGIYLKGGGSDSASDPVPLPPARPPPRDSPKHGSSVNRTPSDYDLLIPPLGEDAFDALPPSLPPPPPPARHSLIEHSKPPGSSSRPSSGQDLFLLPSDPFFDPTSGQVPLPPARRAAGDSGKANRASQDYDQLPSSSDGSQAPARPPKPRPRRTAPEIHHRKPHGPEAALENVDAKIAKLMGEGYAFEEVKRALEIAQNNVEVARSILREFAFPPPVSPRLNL

Experiments:
Assay in all cases: co-IP; endogenous proteins from precleared RIPA lysates of BMM (resting, stimulated with 1 ug/ml LPS, or LPS-tolerant and re-challenged); anti-DOK3 or anti-Grb2 antibody on ice 1 h, protein A or G beads at 4 C 1 h; immunoblot
[1] = molecular target: T1, DOK3 (mouse (endogenous in BMM)) (UniProt Q9QZK7)
T1 sequence: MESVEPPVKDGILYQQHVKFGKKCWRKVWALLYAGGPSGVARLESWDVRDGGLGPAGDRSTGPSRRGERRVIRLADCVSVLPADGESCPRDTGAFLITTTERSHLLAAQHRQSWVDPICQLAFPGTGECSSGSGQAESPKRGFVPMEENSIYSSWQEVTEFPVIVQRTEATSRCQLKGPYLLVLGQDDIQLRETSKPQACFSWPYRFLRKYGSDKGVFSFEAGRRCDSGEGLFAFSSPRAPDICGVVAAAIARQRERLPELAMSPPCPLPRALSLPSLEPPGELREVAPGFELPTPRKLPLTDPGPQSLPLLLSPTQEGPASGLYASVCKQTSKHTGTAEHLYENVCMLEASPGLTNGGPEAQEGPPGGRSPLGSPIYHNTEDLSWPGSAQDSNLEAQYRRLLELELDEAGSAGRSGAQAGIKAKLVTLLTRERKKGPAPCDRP

[2] = molecular target: Grb2 (mouse (endogenous in BMM)) (UniProt Q60631)
[3] = molecular target: Grb2 (mouse (endogenous in BMM)) (UniProt Q60631); remark: listed apart in the source

Molecule: Grb2 (from UniProt Q60631 1-217)
- binding [1]: binds

Molecule: SOS1 (from UniProt Q62245 1-1319)
- binding [2]: binds
- binding [1]: binds

Molecule: Cbl-b (from UniProt Q3TTA7 1-982)
- binding [1]: binds

B1: DOK3 (protein, UniProt Q9QZK7 1-444)
chain: MESVEPPVKDGILYQQHVKFGKKCWRKVWALLYAGGPSGVARLESWDVRDGGLGPAGDRSTGPSRRGERRVIRLADCVSVLPADGESCPRDTGAFLITTTERSHLLAAQHRQSWVDPICQLAFPGTGECSSGSGQAESPKRGFVPMEENSIYSSWQEVTEFPVIVQRTEATSRCQLKGPYLLVLGQDDIQLRETSKPQACFSWPYRFLRKYGSDKGVFSFEAGRRCDSGEGLFAFSSPRAPDICGVVAAAIARQRERLPELAMSPPCPLPRALSLPSLEPPGELREVAPGFELPTPRKLPLTDPGPQSLPLLLSPTQEGPASGLYASVCKQTSKHTGTAEHLYENVCMLEASPGLTNGGPEAQEGPPGGRSPLGSPIYHNTEDLSWPGSAQDSNLEAQYRRLLELELDEAGSAGRSGAQAGIKAKLVTLLTRERKKGPAPCDRP
- binding [3]: binds
